# This is one part of the list.
# B1: R2-fiber (Pseudomonas aeruginosa), Q9S576 (protein)
# chain: HHHHHHKVAKDLVVSLAYQVRTEDGVLVDESPVSAPLDYLHGHGSLISGLETALEGHEVGDKFDVAVGANDAYGQYDENLVQRVPKDVFMGVDELQVGMRFLAETDQGPVPVEITAVEDDHVVVDGNHMLAGQNLKFNVEVVAIREATEEELAHGHVHGAHDHHHDHDHDGCCGGHGHDHGHEHGGEGCCGGKGNGGCGCHENLYFQGVTAGMALAATDIPGLDASKLVSGVLAEQRLPVFARGLATAVSNSSDPNTATVPLMLTNHANGPVAGRYFYIQSMFYPDQNGNASQIATSYNATSEMYVRVSYAANPSIREWLPWQRCDIGGSFTKEADGELPGGVNLDSMVTSGWWSQSFTAQAASGANYPIVRAGLLHVYAASSNFIYQTYQAYDGESFYFRCRHSNTWFPWRRMWHGGDFNPSDYLLKSGFYWNALPGKPATFPPSAHNHDVGQLTSGILPLARGGVGSNTAAGARSTIGAGVPATASLGASGWWRDNDTGLIRQWGQVTCPADADASITFPIPFPTLCLGGYANQTSAFHPGTDASTGFRGATTTTAVIRNGYFAQAVLSWEAFGR
# Columns and labels:
# Assay in all cases: glycan array binding signal (z-score within array); higher = stronger binding
# Conditions in all cases: glycan notation: IUPAC condensed, linker removed
# [1] = biological target: Gal3S(b1-3)[Fuc(a1-4)]GlcNAc
# Summary of the method: (§1)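 Glycan array data came from 3228 arrays in the Consortium for Functional Glycomics database, and only arrays with an available protein sequence were kept. Glycan names were put into IUPAC-condensed notation, and columns mapping to the same glycan were averaged. The binding signal is a within-array Z-score, averaged across arrays of one protein sequence run at different concentrations or buffers and across linkers. A negative Z-score can be read as non-binding.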
# Gal3S(b1-4)Glc = biological target: Gal3S(b1-4)Glc
# Summary of the method: as §1
# Gal3S(b1-4)Glc6S = biological target: Gal3S(b1-4)Glc6S
# Summary of the method: as §1
# Gal3S(b1-4)GlcNAc = biological target: Gal3S(b1-4)GlcNAc
# Summary of the method: as §1
# [2] = biological target: Gal3S(b1-4)[Fuc(a1-3)]Glc6S
# Summary of the method: as §1
# [3] = biological target: Gal3S(b1-4)[Fuc(a1-3)]GlcNAc
# Summary of the method: as §1
# [4] = biological target: Gal3S(b1-4)[Fuc(a1-3)]GlcNAc6S
# Summary of the method: as §1
# Gal3S4S(b1-4)GlcNAc = biological target: Gal3S4S(b1-4)GlcNAc
# Summary of the method: as §1
# Gal3S6S(b1-4)GlcNAc = biological target: Gal3S6S(b1-4)GlcNAc
# Summary of the method: as §1
# Gal3S6S(b1-4)GlcNAc6S = biological target: Gal3S6S(b1-4)GlcNAc6S
# Summary of the method: as §1
# Gal4S(b1-4)GlcNAc = biological target: Gal4S(b1-4)GlcNAc
# Summary of the method: as §1
# Gal4S6S(b1-4)GlcNAc = biological target: Gal4S6S(b1-4)GlcNAc
# Summary of the method: as §1
# Gal6P(b1-4)GlcNAc = biological target: Gal6P(b1-4)GlcNAc
# Summary of the method: as §1
# Gal6S(b1-3)GlcNAc = biological target: Gal6S(b1-3)GlcNAc
# Summary of the method: as §1
# Gal6S(b1-3)GlcNAc6S = biological target: Gal6S(b1-3)GlcNAc6S
# Summary of the method: as §1
# Gal6S(b1-4)Glc = biological target: Gal6S(b1-4)Glc
# Summary of the method: as §1
# Gal6S(b1-4)Glc6S = biological target: Gal6S(b1-4)Glc6S
# Summary of the method: as §1
# Gal6S(b1-4)GlcNAc = biological target: Gal6S(b1-4)GlcNAc
# Summary of the method: as §1
# Gal6S(b1-4)GlcNAc6S = biological target: Gal6S(b1-4)GlcNAc6S
# Summary of the method: as §1
# GalNAc(a1-3)Gal = biological target: GalNAc(a1-3)Gal
# Summary of the method: as §1
# GalNAc(a1-3)GalNAc = biological target: GalNAc(a1-3)GalNAc
# Summary of the method: as §1
# [5] = biological target: GalNAc(a1-3)GalNAc(b1-3)Gal(a1-4)Gal(b1-4)Glc
# Summary of the method: as §1
# [6] = biological target: GalNAc(a1-3)GalNAc(b1-3)Gal(a1-4)Gal(b1-4)GlcNAc
# Summary of the method: as §1
# GalNAc(b1-3)Gal = biological target: GalNAc(b1-3)Gal
# Summary of the method: as §1
# [7] = biological target: GalNAc(b1-3)Gal(a1-4)Gal(b1-4)GlcNAc
# Summary of the method: as §1
# [8] = biological target: GalNAc(b1-3)Gal(a1-4)Gal(b1-4)GlcNAc(b1-3)Gal(b1-4)Glc
# Summary of the method: as §1
# [9] = biological target: GalNAc(b1-3)Gal(a1-6)Gal(b1-4)Glc
# Summary of the method: as §1
# GalNAc(b1-3)GalNAc = biological target: GalNAc(b1-3)GalNAc
# Summary of the method: as §1
# GalNAc(b1-3)GlcNAc = biological target: GalNAc(b1-3)GlcNAc
# Summary of the method: as §1
# GalNAc(b1-4)Gal(b1-4)Glc = biological target: GalNAc(b1-4)Gal(b1-4)Glc
# Summary of the method: as §1
# GalNAc(b1-4)GlcNAc = biological target: GalNAc(b1-4)GlcNAc
# Summary of the method: as §1
# [10] = biological target: GalNAc(b1-4)GlcNAc(b1-2)Man
# Summary of the method: as §1
# [11] = biological target: GalNAc(b1-4)GlcNAc(b1-2)Man(a1-3)[GalNAc(b1-4)GlcNAc(b1-2)Man(a1-6)]Man(b1-4)GlcNAc(b1-4)GlcNAc
# Summary of the method: as §1
# [12] = biological target: GalNAc(b1-4)GlcNAc(b1-3)GalNAc(b1-4)GlcNAc
# Summary of the method: as §1
# GalNAc(b1-4)GlcNAc6S = biological target: GalNAc(b1-4)GlcNAc6S
# Summary of the method: as §1
# GalNAc(b1-6)GalNAc = biological target: GalNAc(b1-6)GalNAc
# Summary of the method: as §1
# GalNAc3S(b1-4)GlcNAc = biological target: GalNAc3S(b1-4)GlcNAc
# Summary of the method: as §1
# GalNAc3S(b1-4)GlcNAc3S = biological target: GalNAc3S(b1-4)GlcNAc3S
# Summary of the method: as §1
# [13] = biological target: GalNAc3S(b1-4)[Fuc(a1-3)]GlcNAc
# Summary of the method: as §1
# GalNAc4S6S(b1-4)GlcNAc = biological target: GalNAc4S6S(b1-4)GlcNAc
# Summary of the method: as §1
# GalNAc6S(b1-4)GlcNAc = biological target: GalNAc6S(b1-4)GlcNAc
# Summary of the method: as §1
# Glc(a1-4)Glc = biological target: Glc(a1-4)Glc
# Summary of the method: as §1
# [14] = biological target: Glc(a1-4)Glc(a1-4)Glc(a1-4)Glc
# Summary of the method: as §1
# Glc(a1-6)Glc(a1-6)Glc = biological target: Glc(a1-6)Glc(a1-6)Glc
# Summary of the method: as §1
# [15] = biological target: Glc(a1-6)Glc(a1-6)Glc(a1-6)Glc
# Summary of the method: as §1
# Glc(b1-4)Glc = biological target: Glc(b1-4)Glc
# Summary of the method: as §1
# Glc(b1-6)Glc = biological target: Glc(b1-6)Glc
# Summary of the method: as §1
# GlcA(b1-3)Gal = biological target: GlcA(b1-3)Gal
# Summary of the method: as §1
# GlcA(b1-3)GlcNAc = biological target: GlcA(b1-3)GlcNAc
# Summary of the method: as §1
# GlcA(b1-6)Gal = biological target: GlcA(b1-6)Gal
# Summary of the method: as §1
# [16] = biological target: GlcA3S(b1-3)Gal(b1-4)GlcNAc(b1-2)Man
# Summary of the method: as §1
# [17] = biological target: GlcA3S(b1-3)Gal(b1-4)GlcNAc(b1-3)Gal(b1-4)Glc
# Summary of the method: as §1
# [18] = biological target: GlcNAc(a1-3)Gal(b1-4)GlcNAc
# Summary of the method: as §1
# [19] = biological target: GlcNAc(a1-4)Gal(b1-3)GlcNAc
# Summary of the method: as §1
# [20] = biological target: GlcNAc(a1-4)Gal(b1-4)GalNAc
# Summary of the method: as §1
# [21] = biological target: GlcNAc(a1-4)Gal(b1-4)GlcNAc
# Summary of the method: as §1
# [22] = biological target: GlcNAc(a1-4)Gal(b1-4)GlcNAc(b1-3)Gal(b1-4)Glc
# Summary of the method: as §1
# [23] = biological target: GlcNAc(a1-4)Gal(b1-4)GlcNAc(b1-3)Gal(b1-4)GlcNAc
# Summary of the method: as §1
# [24] = biological target: GlcNAc(a1-4)Gal(b1-4)GlcNAc(b1-3)Gal(b1-4)GlcNAc(b1-3)Gal(b1-4)GlcNAc
# Summary of the method: as §1
# [25] = biological target: GlcNAc(a1-4)Gal(b1-4)GlcNAc(b1-3)Gal(b1-4)[Fuc(a1-3)]GlcNAc(b1-3)Gal(b1-4)[Fuc(a1-3)]GlcNAc
# Summary of the method: as §1
binder,measurement,setting,value
B1,glycan array binding signal (z-score),[1],0.137
same,glycan array binding signal (z-score),Gal3S(b1-4)Glc,-0.16
same,glycan array binding signal (z-score),Gal3S(b1-4)Glc6S,0.533
same,glycan array binding signal (z-score),Gal3S(b1-4)GlcNAc,0.165
same,glycan array binding signal (z-score),[2],0.853
same,glycan array binding signal (z-score),[3],0.391
same,glycan array binding signal (z-score),[4],0.196
same,glycan array binding signal (z-score),Gal3S4S(b1-4)GlcNAc,-0.439
same,glycan array binding signal (z-score),Gal3S6S(b1-4)GlcNAc,0.781
same,glycan array binding signal (z-score),Gal3S6S(b1-4)GlcNAc6S,-0.429
same,glycan array binding signal (z-score),Gal4S(b1-4)GlcNAc,-0.821
same,glycan array binding signal (z-score),Gal4S6S(b1-4)GlcNAc,1.74
same,glycan array binding signal (z-score),Gal6P(b1-4)GlcNAc,-0.42
same,glycan array binding signal (z-score),Gal6S(b1-3)GlcNAc,-0.111
same,glycan array binding signal (z-score),Gal6S(b1-3)GlcNAc6S,0.29
same,glycan array binding signal (z-score),Gal6S(b1-4)Glc,0.263
same,glycan array binding signal (z-score),Gal6S(b1-4)Glc6S,0.583
same,glycan array binding signal (z-score),Gal6S(b1-4)GlcNAc,-0.119
same,glycan array binding signal (z-score),Gal6S(b1-4)GlcNAc6S,-0.049
same,glycan array binding signal (z-score),GalNAc(a1-3)Gal,0.47
same,glycan array binding signal (z-score),GalNAc(a1-3)GalNAc,0.659
same,glycan array binding signal (z-score),[5],-0.838
same,glycan array binding signal (z-score),[6],-0.332
same,glycan array binding signal (z-score),GalNAc(b1-3)Gal,-0.009
same,glycan array binding signal (z-score),[7],0.164
same,glycan array binding signal (z-score),[8],-0.577
same,glycan array binding signal (z-score),[9],-0.358
same,glycan array binding signal (z-score),GalNAc(b1-3)GalNAc,-0.272
same,glycan array binding signal (z-score),GalNAc(b1-3)GlcNAc,0.202
same,glycan array binding signal (z-score),GalNAc(b1-4)Gal(b1-4)Glc,0.504
same,glycan array binding signal (z-score),GalNAc(b1-4)GlcNAc,-0.093
same,glycan array binding signal (z-score),[10],-0.403
same,glycan array binding signal (z-score),[11],-0.124
same,glycan array binding signal (z-score),[12],-0.502
same,glycan array binding signal (z-score),GalNAc(b1-4)GlcNAc6S,-0.166
same,glycan array binding signal (z-score),GalNAc(b1-6)GalNAc,-0.312
same,glycan array binding signal (z-score),GalNAc3S(b1-4)GlcNAc,-0.587
same,glycan array binding signal (z-score),GalNAc3S(b1-4)GlcNAc3S,-0.926
same,glycan array binding signal (z-score),[13],-0.594
same,glycan array binding signal (z-score),GalNAc4S6S(b1-4)GlcNAc,-0.169
same,glycan array binding signal (z-score),GalNAc6S(b1-4)GlcNAc,0.169
same,glycan array binding signal (z-score),Glc(a1-4)Glc,-0.142
same,glycan array binding signal (z-score),[14],0.279
same,glycan array binding signal (z-score),Glc(a1-6)Glc(a1-6)Glc,-0.204
same,glycan array binding signal (z-score),[15],-0.135
same,glycan array binding signal (z-score),Glc(b1-4)Glc,-0.374
same,glycan array binding signal (z-score),Glc(b1-6)Glc,-0.403
same,glycan array binding signal (z-score),GlcA(b1-3)Gal,0.217
same,glycan array binding signal (z-score),GlcA(b1-3)GlcNAc,-0.73
same,glycan array binding signal (z-score),GlcA(b1-6)Gal,-0.538
same,glycan array binding signal (z-score),[16],-0.121
same,glycan array binding signal (z-score),[17],-0.203
same,glycan array binding signal (z-score),[18],0.199
same,glycan array binding signal (z-score),[19],-0.572
same,glycan array binding signal (z-score),[20],-0.004
same,glycan array binding signal (z-score),[21],-0.455
same,glycan array binding signal (z-score),[22],-0.467
same,glycan array binding signal (z-score),[23],-0.243
same,glycan array binding signal (z-score),[24],-0.664
same,glycan array binding signal (z-score),[25],-0.106

# Part of the list above, tab-delimited.
binder	measurement	setting	value
B1	glycan array binding signal (z-score)	Gal6S(b1-3)GlcNAc	-0.111
same	glycan array binding signal (z-score)	GalNAc(a1-3)GalNAc	0.659
same	glycan array binding signal (z-score)	[12]	-0.502
same	glycan array binding signal (z-score)	Glc(a1-6)Glc(a1-6)Glc	-0.204

# — the supplement of paper PMC8728848
